This is an account of results in PMC10570038.

For assay [1], the target named is StrepII-His6-RBPMS-A (full length) (rat). In words: pull-down; 2 μM StrepII-His6-RBPMS variant in 60% HeLa NE, 2.2 mM MgCl2, 2.6% PVA, 30°C 15 min; MagStrep 'type3' XT beads; six washes with 150 mM KCl buffer; elution with biotin; immunoblot; only the target purified.
In assay [2] the target is recombinant untagged full-length rat RBPMS-A (rat). Kind of assay: co-sedimentation; Benzonase-treated HeLa NE with buffer, ΔC20 or FL RBPMS (1 μM StrepII-His6-RBPMS-A or tag-free RBPMS-A plus 1 μM His6-RBPMS-A-Alexa 647); 10-60% glycerol, 0-0.15% glutaraldehyde gradient, 100 mM KCl, pH 7.9; SW40 Ti 32 000 rpm 13 h 4°C; fractions dot blotted; only the target purified.
Assay [3] addresses StrepII-His6-RBPMS-A-K100E (rat). In words: pull-down; 2 μM StrepII-His6-RBPMS variant in 60% HeLa NE, 2.2 mM MgCl2, 2.6% PVA, 30°C 15 min; MagStrep 'type3' XT beads; six washes with 150 mM KCl buffer; elution with biotin; immunoblot; only the target purified. For orientation: A western blot detects proteins with antibodies after separation by electrophoresis.
Assay [4] concerns the target StrepII-His6-RBPMS-A (full length) (rat). Kind of assay: pull-down; as the StrepII pull-down with immunoblot, but HeLa NE pretreated with 5 U/ml Benzonase at 30°C for 15 min and clarified before RBPMS was added; only the target purified.

Results are given in words; binding and its absence hold for the method and conditions named. In cells and extracts the contact can be indirect. Some binding calls cover weakened binding; strength is not graded here.

B1: ESRP2 (protein, UniProt Q9H6T0 1-727)
chain: MTPPPPPPPPPGPDPAADPAADPCPWPGSLVVLFGATAGALGRDLGSDETDLILLVWQVVEPRSRQVGTLHKSLVRAEAAALSTQCREASGLSADSLARAEPLDKVLQQFSQLVNGDVALLGGGPYMLCTDGQQLLRQVLHPEASRKNLVLPDMFFSFYDLRREFHMQHPSTCPARDLTVATMAQGLGLETDATEDDFGVWEVKTMVAVILHLLKEPSSQLFSKPEVIKQKYETGPCSDSTVPCPYSSKADVVDSETVVRARGLPWQSSDQDVARFFKGLNVARGGVALCLNAQGRRNGEALIRFVDSEQRDLALQRHKHHMGVRYIEVYKATGEEFVKIAGGTSLEVARFLSREDQVILRLRGLPFSAGPTDVLGFLGPECPVTGGTEGLLFVRHPDGRPTGDAFALFACEELAQAALRRHKGMLGKRYIELFRSTAAEVQQVLNRYASGPLLPTLTAPLLPIPFPLAPGTGRDCVRLRGLPYTATIEDILSFLGEAAADIRPHGVHMVLNQQGRPSGDAFIQMTSAERALAAAQRCHKKVMKERYVEVVPCSTEEMSRVLMGGTLGRSGMSPPPCKLPCLSPPTYTTFQATPTLIPTETAALYPSSALLPAARVPAAPTPVAYYPGPATQLYLNYTAYYPSPPVSPTTVGYLTTPTAALASAPTSVLSQSGALVRMQGVPYTAGMKDLLSVFQAYQLPADDYTSLMPVGDPPRTVLQAPKEWVCL
Turning to B1, the binding result in assay [1] is reported as “binds”.

B2: hnRNPM (protein, UniProt P52272 1-730)
chain: MAAGVEAAAEVAATEIKMEEESGAPGVPSGNGAPGPKGEGERPAQNEKRKEKNIKRGGNRFEPYANPTKRYRAFITNIPFDVKWQSLKDLVKEKVGEVTYVELLMDAEGKSRGCAVVEFKMEESMKKAAEVLNKHSLSGRPLKVKEDPDGEHARRAMQKVMATTGGMGMGPGGPGMITIPPSILNNPNIPNEIIHALQAGRLGSTVFVANLDYKVGWKKLKEVFSMAGVVVRADILEDKDGKSRGIGTVTFEQSIEAVQAISMFNGQLLFDRPMHVKMDERALPKGDFFPPERPQQLPHGLGGIGMGLGPGGQPIDANHLNKGIGMGNIGPAGMGMEGIGFGINKMGGMEGPFGGGMENMGRFGSGMNMGRINEILSNALKRGEIIAKQGGGGGGGSVPGIERMGPGIDRLGGAGMERMGAGLGHGMDRVGSEIERMGLVMDRMGSVERMGSGIERMGPLGLDHMASSIERMGQTMERIGSGVERMGAGMGFGLERMAAPIDRVGQTIERMGSGVERMGPAIERMGLSMERMVPAGMGAGLERMGPVMDRMATGLERMGANNLERMGLERMGANSLERMGLERMGANSLERMGPAMGPALGAGIERMGLAMGGGGGASFDRAIEMERGNFGGSFAGSFGGAGGHAPGVARKACQIFVRNLPFDFTWKMLKDKFNECGHVLYADIKMENGKSKGCGVVKFESPEVAERACRMMNGMKLSGREIDVRIDRNA
Consider B2, for which the binding entry in assay [2] was “no binding”.

B3: RBFOX2 (protein, UniProt O43251 1-390)
chain: MQNEPLTPGYHGFPARDSQGNQEPTTTPDAMVQPFTTIPFPPPPQNGIPTEYGVPHTQDYAGQTGEHNLTLYGSTQAHGEQSSNSPSTQNGSLTTEGGAQTDGQQSQTQSSENSESKSTPKRLHVSNIPFRFRDPDLRQMFGQFGKILDVEIIFNERGSKGFGFVTFENSADADRAREKLHGTVVEGRKIEVNNATARVMTNKKMVTPYANGWKLSPVVGAVYGPELYAASSFQADVSLGNDAAVPLSGRGGINTYIPLISLPLVPGFPYPTAATTAAAFRGAHLRGRGRTVYGAVRAVPPTAIPAYPGVVYQDGFYGADLYGGYAAYRYAQPATATAATAAAAAAAAYSDGYGRVYTADPYHALAPAASYGVGAVASLYRGGYSRFAPY
Turning to B3, the binding entry in assay [3], in assay [1], in assay [4] and in assay [2] was “binds” in each case.

B4: RBM14 (protein, UniProt Q96PK6 1-669)
chain: MKIFVGNVDGADTTPEELAALFAPYGTVMSCAVMKQFAFVHMRENAGALRAIEALHGHELRPGRALVVEMSRPRPLNTWKIFVGNVSAACTSQELRSLFERRGRVIECDVVKDYAFVHMEKEADAKAAIAQLNGKEVKGKRINVELSTKGQKKGPGLAVQSGDKTKKPGAGDTAFPGTGGFSATFDYQQAFGNSTGGFDGQARQPTPPFFGRDRSPLRRSPPRASYVAPLTAQPATYRAQPSVSLGAAYRAQPSASLGVGYRTQPMTAQAASYRAQPSVSLGAPYRGQLASPSSQSAAASSLGPYGGAQPSASALSSYGGQAAAASSLNSYGAQGSSLASYGNQPSSYGAQAASSYGVRAAASSYNTQGAASSLGSYGAQAASYGAQSAASSLAYGAQAASYNAQPSASYNAQSAPYAAQQAASYSSQPAAYVAQPATAAAYASQPAAYAAQATTPMAGSYGAQPVVQTQLNSYGAQASMGLSGSYGAQSAAAATGSYGAAAAYGAQPSATLAAPYRTQSSASLAASYAAQQHPQAAASYRGQPGNAYDGAGQPSAAYLSMSQGAVANANSTPPPYERTRLSPPRASYDDPYKKAVAMSKRYGSDRRLAELSDYRRLSESQLSFRRSPTKSSLDYRRLPDAHSDYARYSGSYNDYLRAAQMHSGYQRRM
Regarding B4, the binding entry in assay [1] is reported as “binds”.
